Reference: PMC10735225

Molecular target: Myc-tagged RSPH3 (mouse)
Assay: co-IP; lysates of transfected HEK293T cells (Pierce IP Lysis Buffer); 2 ug anti-Myc or anti-FLAG antibody, Protein A/G agarose; western blot

binding: binds
B1: FLAG-tagged CFAP52 (cilia and flagella associated protein 52) (protein, UniProt Q5F201-1 1-620)
chain: MEEQVLPELDVAELELQAVIGFNGHVPNGLKCHPDQEHLIYPLGCTVLIQAINTNEQNFLHGHGNNVSCVTISKEGDYIASGQVTFMGFKADIILWDFKKRELIARLSLHKGKIEALAFSPNDLYLVSLGGPDDGSVVVWSIAKRDAICGSPAAGLNVGNATSVVFSRCRDEMFVTAGNGTIRVWELDLPNRKIWPTECQTGQMKRIVLSTGMADDDSFFYLGTTTGDILKMNPKTKLLADTGPVKDKFSLGVSALRCLKMGGLLVGSGAGLLIFCKSPSYKPIKKVQLQGGITSITLRGEGHQFFVGTEESHIYRVNFTDFKETLIATCHFEAVQDIVFPFGTAELFATCAKKDIRVWHTMSKRELLRITVPNMTCHGIDFMRDGKSIISAWDDGKIRAFAPESGRLMYTINSAHRIGVTAIATTSDCKRIISGGGEGEVRVWQVGCQTQKLEEALKEHKSSVSCIRVKKNNEECVTASTDGTCIIWDLVRLRRNQMILANTLFQCVCYHPEEFQIITSGTDRKIAYWEVFDGSVIRELEGSLSGSINGMDITQEGGHFVTGGHDHLVKVWDYNEGEVTHVGVGHSGNIMAMRISPGNQYIVSVSADGAILRWKYPFAS

No constants are given. Whether binding was seen depends on the method and setting. Binding seen in cells or lysates may run through a third protein. Binding calls can cover weak binding; strength is not graded here. Sequences can lack the tags named with a protein.
